Earlier results, collected in patent US12018008B2, “Crystalline forms of an androgen receptor modulator” (Aragon Pharmaceuticals, Inc., priority 2012, dated 2024).
At least one compound was matched to its structure with a doubt left.

System: W741L/W741C AR mutants
Conditions: cited from earlier work

CC(O)(CS(=O)(=O)c1ccc(F)cc1)C(=O)Nc1ccc(C#N)c(C(F)(F)F)c1 (stereo not shown) [bicalutamide]
Activity in W741L/W741C AR mutants: act as AR agonists
